PubChem BioAssay AID1224826 – NIAID – 2016
Shown is an unselected part of about 17,000 reagents. Of all reagents, about 1,110 (6.6%) are marked active. 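Active means lowered or raised reporter signal; replicate intensities are raw and not normalised per plate.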 Unmarked entries are inactive. Reagents against one gene are numbered here. No sequences are given here.

- Screen: 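Genes that change LPS-induced Tnf promoter activity in mouse macrophages when knocked down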 (primary screen)
- Cells: RAW264.7 G9 macrophages from mouse bearing reporters for p65 (GFP) and the Tnf promoter (mCherry)
- Reagent: siRNA pool against mouse genes, 100 nM
- Timing: 16 h of LPS stimulation, after 2 days of siRNA transfection
- Treatment: bacterial lipopolysaccharide (Salmonella minnesota R595), 10 ng/ml
- Measured: 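Imaged Tnf reporter mCherry in nuclei, minus background, normalised per plate to the median and expressed as robust z-scores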
- Scale: Tnf reporter robust z-score: higher = stronger Tnf promoter reporter signal after LPS; Tnf reporter intensity: higher = stronger Tnf promoter reporter signal
- Call rule: 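a well counts as active at a score of -1.3 or below (Tlr4 knock-down control median) or above 3 (raised signal); controls and wells holding fewer than 50 cells are excluded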
- Calls: active = Tnf reporter clearly lowered or raised; inactive = no clear change in Tnf reporter

The opening 3 records, to show the layout:
Gene	pool no.	Tnf reporter robust z-score	fewer than 50 cells in well	Tnf reporter intensity, replicate 1	Tnf reporter intensity, replicate 2
Zbtb44	1	-0.8	enough cells in well	112	107
Zbtb44	2	-0.59	enough cells in well	101	112
Acox1	1	0.55	enough cells in well	199	201

The listing, from the start:
Gene	pool no.	Tnf reporter robust z-score	fewer than 50 cells in well	Tnf reporter intensity, replicate 1	Tnf reporter intensity, replicate 2
Zbtb44	1	-0.8	enough cells in well	112	107
Zbtb44	2	-0.59	enough cells in well	101	112
Acox1	1	0.55	enough cells in well	199	201
Fam185a	1	-0.15	enough cells in well	202	173
Usp13	1	0.95	enough cells in well	199	219
Il10ra	1	-1.08	enough cells in well	157	115
Il4ra	1	1.25	enough cells in well	377	187
Cnot2	1	0.42	enough cells in well	274	244
Cd53	1	0.04	enough cells in well	231	228
Ifi205	1	1.87	enough cells in well	371	321
Pkd1l2	1	-1.16	enough cells in well	88	69.8
Fam24a	1	1.65	enough cells in well	351	123
Dnajb3	1	2.75	enough cells in well	352	227
Ctnna1	1	-1.59 (active)	enough cells in well	119	91.6
Nsmce3	1	2.49	enough cells in well	336	240
Mpi	1	0.61	enough cells in well	274	283
Olfml2a	1		fewer than 50 cells per well; well left out of calls	165	45.7
Rad50	1	1.92	enough cells in well	534	321
Gsx2	1	-0.06	enough cells in well	256	151
Cxxc1	1	-1.26	enough cells in well	134	98.7
Dhrs1	1	1.59	enough cells in well	328	217
Arl8a	1	-0.49	enough cells in well	162	119
Meis1	1	1.83	enough cells in well	314	231
Ormdl3	1	0.7	enough cells in well	179	167
Tex21	1	1.5	enough cells in well	170	146
Cyp2g1	1	-0.73	enough cells in well	154	117
Bcl2a1c	1		fewer than 50 cells per well; well left out of calls	63.8	75.6
Krtap26-1	1		fewer than 50 cells per well; well left out of calls	197	67.2
Kti12	1	-0.22	enough cells in well	327	48
Napepld	1	0.52	enough cells in well	264	198
Mmp19	1	0.75	enough cells in well	296	285
Zfp516	1	2.91	enough cells in well	217	330
Pllp	1	0.11	enough cells in well	154	69.4
Zng1	1	0.28	enough cells in well	205	251
Rel	1	0	enough cells in well	342	182
Zfp748	1		fewer than 50 cells per well; well left out of calls	105	26.3
D930030K17Rik	1	-0.65	enough cells in well	143	130
Calhm6	1	2.08	enough cells in well	311	239
S100a3	1	-0.65	enough cells in well	193	192
Brip1	1		fewer than 50 cells per well; well left out of calls	96.1	90.8
